Results from patent US4427660A, “Formyl-methionyl chemotatic peptide antibiotic conjugates useful in treating infections” (priority 1982, dated 1984).
Part of at least one peptide drawing is inferred or uncertain, most often the ends.

How the values were obtained:
[1] = molecular target: T1, surface receptor of rabbit polymorphonuclear leukocytes (Oryctolagus cuniculus, UniProt Q05394); assay: Inhibition of F-Nle-leu (3H)PHE binding to rabbit PMN
T1 construct: endogenous in cells; host or cells: rabbit polymorphonuclear leukocytes (neutrophils)
T1 sequence (Q05394 1-352): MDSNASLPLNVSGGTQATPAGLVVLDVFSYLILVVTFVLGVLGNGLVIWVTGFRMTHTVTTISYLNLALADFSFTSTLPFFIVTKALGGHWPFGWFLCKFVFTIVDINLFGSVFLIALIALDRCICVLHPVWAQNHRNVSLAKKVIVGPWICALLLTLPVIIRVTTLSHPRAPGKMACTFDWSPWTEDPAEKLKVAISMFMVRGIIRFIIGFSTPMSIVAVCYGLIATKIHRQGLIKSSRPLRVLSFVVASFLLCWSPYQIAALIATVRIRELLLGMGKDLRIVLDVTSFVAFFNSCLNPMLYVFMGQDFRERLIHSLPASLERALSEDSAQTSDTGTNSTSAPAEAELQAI

neutrophils = assay: Chemotactic response in neutrophils; assay type: cell-based

## CSCC[C@H](NC=O)C(=O)N[C@@H](CC(C)C)C(=O)Nc1ccc(S(=O)(=O)Nc2ncccn2)cc1 [fMet-Leu-Sulfadiazine]
[1]
  receptor binding assay compared with fMet-Leu-OH: as effective as fMet-Leu-OH
neutrophils
  chemotactic response compared with fMet-Leu-OH: as potent as fMet-Leu-OH
